PubChem BioAssay AID1053208 | Peter MacCallum Cancer Centre | 2014
Test: 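Genes whose silencing cuts survival of bone tumour cells only with doxorubicin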 (primary screen). Cells: mouse osteosarcoma cells, early-passage culture from an engineered mouse model of fibroblastic bone tumour. Reagent: siRNA pool against mouse genes, 40 nM. Time to read-out: about 120 h (48 h before drug, then 72 h with drug). Challenge: doxorubicin 100 nM for 72 h, roughly 30-40% inhibitory dose. Detection: 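Luminescent ATP signal taken as viability with or without 100 nM doxorubicin for 72 h; mean of two wells set against non-targeting siRNA and turned into robust z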. Scale: viability z-score with doxorubicin: higher = more viable cells under doxorubicin; viability z-score without drug: higher = more viable cells with knock-down alone. Call rule: 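a pool counts as active when its viability z-score with doxorubicin is -2 or below and its z-score without drug lies between -2 and 2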.
In all, the deposit lists about 17,000 reagents; shown is an unselected part. 788 of them (4.7%) were called active. 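Calls rest on z-score classes alone; an extra cut-off of viability at most 70% of control was not applied to them.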 Further read-outs or replicates are left out here. Reagent sequences are not shown.

no.	gene	combined z-score class	viability z-score with doxorubicin	viability z-score without drug	activity call
1	Mrpl54 (GeneID 66047)	low cell count with and without drug	-4.16	-3.37	inactive
2	Rtn4rl1 (GeneID 237847)	no change with or without drug	-0.45	-0.17	inactive
3	Pja1 (GeneID 18744)	no change with or without drug	0.45	1.18	inactive
4	Serpina10 (GeneID 217847)	no change with or without drug	-1.01	0.34	inactive
5	Dgcr2 (GeneID 13356)	no change with or without drug	1.35	-0.34	inactive
6	Prl3c1 (GeneID 27372)	no change with or without drug	0.67	-0.84	inactive
7	Igfn1 (GeneID 226438)	no change with or without drug	-1.46	-0.51	inactive
8	Card11 (GeneID 108723)	low cell count with doxorubicin only	-2.25	-0.17	active

Individual results from the list:
Prl3c1 (GeneID 27372), activity call → inactive
Serpina10 (GeneID 217847), viability z-score with doxorubicin: -1.01

More records follow:
no.	gene	combined z-score class	viability z-score with doxorubicin	viability z-score without drug	activity call
9	Ttf2 (GeneID 74044)	no change with or without drug	1.35	1.52	inactive
10	Armc1 (GeneID 74252)	no change with or without drug	0.34	-0.17	inactive
11	Gpr15 (GeneID 71223)	no change with or without drug	0.79	0.51	inactive
12	Zfp148 (GeneID 22661)	no change with or without drug	0.56	1.18	inactive
13	Usp15 (GeneID 14479)	no change with or without drug	0	-0.34	inactive
14	Pon3 (GeneID 269823)	no change with or without drug	0.9	0.51	inactive
15	Serpine1 (GeneID 18787)	no change with or without drug	-0.45	0.51	inactive
16	Esx1 (GeneID 13984)	no change with or without drug	-0.22	0.17	inactive
17	Cib1 (GeneID 23991)	no change with or without drug	0	0	inactive
18	H2-M3 (GeneID 14991)	no change with or without drug	-0.22	-0.84	inactive
19	Ppox (GeneID 19044)	no change with or without drug	0.67	-0.84	inactive
20	Akip1 (GeneID 57373)	no change with or without drug	-0.9	0.34	inactive
